{"sequences": {"note": "Chains of the proteins cited; added tags and fusions are not shown. Lines headed by an entry give the natural chain unless they say otherwise; changes in a name come on top.", "UniProt P33352": "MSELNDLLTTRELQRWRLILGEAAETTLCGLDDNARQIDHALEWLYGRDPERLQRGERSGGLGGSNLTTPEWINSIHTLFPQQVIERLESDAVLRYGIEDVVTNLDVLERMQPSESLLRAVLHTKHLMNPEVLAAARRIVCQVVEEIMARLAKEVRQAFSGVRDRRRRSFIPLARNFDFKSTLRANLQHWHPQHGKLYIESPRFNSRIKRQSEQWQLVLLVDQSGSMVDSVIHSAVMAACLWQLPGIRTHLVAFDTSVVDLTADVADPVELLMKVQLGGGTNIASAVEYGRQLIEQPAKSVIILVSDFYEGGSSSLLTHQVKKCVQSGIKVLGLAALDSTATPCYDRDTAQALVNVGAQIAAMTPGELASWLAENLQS", "UniProt P30130": "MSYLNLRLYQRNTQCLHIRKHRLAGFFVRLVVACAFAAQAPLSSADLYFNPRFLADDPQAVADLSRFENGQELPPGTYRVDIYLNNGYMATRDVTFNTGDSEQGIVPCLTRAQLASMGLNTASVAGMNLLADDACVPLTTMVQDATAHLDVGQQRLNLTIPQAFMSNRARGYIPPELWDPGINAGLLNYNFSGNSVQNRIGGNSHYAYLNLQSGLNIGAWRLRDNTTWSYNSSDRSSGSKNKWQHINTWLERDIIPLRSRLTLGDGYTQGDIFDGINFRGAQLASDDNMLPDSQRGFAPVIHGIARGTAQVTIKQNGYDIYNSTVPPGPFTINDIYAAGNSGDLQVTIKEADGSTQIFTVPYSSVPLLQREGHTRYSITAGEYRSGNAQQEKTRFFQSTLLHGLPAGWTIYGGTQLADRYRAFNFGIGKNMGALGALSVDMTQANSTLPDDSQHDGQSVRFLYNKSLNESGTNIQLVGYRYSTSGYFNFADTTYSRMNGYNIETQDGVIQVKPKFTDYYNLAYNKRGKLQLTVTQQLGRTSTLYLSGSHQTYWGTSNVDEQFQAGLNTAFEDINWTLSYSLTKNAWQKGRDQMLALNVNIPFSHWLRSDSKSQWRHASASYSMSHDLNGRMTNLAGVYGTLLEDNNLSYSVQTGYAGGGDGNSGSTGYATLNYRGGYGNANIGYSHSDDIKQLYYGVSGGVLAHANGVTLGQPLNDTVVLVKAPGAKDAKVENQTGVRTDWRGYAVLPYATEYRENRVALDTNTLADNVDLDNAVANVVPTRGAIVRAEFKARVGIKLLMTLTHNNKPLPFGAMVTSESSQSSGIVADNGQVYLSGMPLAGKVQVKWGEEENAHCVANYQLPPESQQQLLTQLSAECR", "UniProt P32662": "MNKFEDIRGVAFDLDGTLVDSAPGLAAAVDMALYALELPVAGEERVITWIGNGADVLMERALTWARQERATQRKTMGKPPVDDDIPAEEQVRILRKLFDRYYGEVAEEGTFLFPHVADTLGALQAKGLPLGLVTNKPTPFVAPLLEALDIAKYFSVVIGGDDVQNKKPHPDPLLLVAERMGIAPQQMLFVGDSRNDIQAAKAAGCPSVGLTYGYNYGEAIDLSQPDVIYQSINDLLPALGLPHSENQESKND", "UniProt P31455": "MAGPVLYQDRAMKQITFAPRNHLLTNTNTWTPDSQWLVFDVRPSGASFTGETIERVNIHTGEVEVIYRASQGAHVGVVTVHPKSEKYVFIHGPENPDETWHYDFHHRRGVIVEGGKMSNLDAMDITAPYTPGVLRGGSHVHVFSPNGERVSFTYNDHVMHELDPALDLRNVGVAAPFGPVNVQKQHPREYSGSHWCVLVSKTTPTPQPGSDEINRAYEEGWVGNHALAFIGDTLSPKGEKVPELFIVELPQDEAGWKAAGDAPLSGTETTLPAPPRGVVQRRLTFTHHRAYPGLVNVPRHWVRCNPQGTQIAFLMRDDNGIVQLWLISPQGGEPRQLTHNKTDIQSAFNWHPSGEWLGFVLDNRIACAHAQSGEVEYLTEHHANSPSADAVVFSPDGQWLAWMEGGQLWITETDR", "UniProt P27550": "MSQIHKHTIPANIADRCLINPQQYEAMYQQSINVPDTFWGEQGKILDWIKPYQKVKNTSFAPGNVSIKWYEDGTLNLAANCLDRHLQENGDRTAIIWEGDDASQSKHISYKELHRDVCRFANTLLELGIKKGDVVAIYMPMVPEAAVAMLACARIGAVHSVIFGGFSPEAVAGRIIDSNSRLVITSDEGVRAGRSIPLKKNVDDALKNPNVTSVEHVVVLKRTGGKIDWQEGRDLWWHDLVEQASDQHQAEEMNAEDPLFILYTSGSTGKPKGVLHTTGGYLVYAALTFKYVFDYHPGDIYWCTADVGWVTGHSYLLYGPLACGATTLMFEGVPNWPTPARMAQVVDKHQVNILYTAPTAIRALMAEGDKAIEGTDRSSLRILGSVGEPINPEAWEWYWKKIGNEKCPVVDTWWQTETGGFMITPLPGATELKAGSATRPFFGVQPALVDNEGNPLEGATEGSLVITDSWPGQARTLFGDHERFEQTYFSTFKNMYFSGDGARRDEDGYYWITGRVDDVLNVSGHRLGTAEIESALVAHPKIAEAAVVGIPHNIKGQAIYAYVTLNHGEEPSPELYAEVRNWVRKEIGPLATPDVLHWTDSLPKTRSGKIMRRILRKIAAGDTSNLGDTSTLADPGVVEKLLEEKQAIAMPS", "UniProt P25894": "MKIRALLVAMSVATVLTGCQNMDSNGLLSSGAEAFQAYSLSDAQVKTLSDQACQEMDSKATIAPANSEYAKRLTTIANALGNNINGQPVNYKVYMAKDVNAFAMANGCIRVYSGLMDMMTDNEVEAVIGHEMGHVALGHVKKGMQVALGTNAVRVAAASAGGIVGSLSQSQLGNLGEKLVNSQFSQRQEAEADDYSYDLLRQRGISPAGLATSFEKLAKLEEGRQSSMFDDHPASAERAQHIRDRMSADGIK", "UniProt P25737": "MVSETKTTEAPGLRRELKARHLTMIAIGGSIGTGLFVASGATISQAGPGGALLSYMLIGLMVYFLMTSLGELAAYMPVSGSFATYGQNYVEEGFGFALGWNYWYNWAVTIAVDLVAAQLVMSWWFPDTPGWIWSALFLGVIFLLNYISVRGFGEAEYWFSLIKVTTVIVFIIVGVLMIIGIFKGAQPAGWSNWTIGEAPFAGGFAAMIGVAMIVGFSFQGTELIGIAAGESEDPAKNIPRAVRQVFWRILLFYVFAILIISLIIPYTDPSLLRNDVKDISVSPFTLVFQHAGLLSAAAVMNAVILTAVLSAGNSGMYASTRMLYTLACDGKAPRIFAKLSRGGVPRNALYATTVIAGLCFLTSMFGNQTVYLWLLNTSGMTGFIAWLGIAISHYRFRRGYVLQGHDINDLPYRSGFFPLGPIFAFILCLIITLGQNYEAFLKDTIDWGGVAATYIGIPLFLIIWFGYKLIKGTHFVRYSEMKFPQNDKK", "UniProt P24205": "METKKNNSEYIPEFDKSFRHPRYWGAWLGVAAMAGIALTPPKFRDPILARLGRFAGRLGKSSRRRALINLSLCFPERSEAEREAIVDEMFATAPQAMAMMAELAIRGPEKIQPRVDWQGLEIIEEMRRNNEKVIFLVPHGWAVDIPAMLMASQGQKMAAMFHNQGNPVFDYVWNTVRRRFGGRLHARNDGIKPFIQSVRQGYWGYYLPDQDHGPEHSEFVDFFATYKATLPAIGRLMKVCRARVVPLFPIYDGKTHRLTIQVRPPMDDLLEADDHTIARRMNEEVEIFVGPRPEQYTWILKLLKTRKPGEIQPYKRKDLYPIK", "UniProt P24203": "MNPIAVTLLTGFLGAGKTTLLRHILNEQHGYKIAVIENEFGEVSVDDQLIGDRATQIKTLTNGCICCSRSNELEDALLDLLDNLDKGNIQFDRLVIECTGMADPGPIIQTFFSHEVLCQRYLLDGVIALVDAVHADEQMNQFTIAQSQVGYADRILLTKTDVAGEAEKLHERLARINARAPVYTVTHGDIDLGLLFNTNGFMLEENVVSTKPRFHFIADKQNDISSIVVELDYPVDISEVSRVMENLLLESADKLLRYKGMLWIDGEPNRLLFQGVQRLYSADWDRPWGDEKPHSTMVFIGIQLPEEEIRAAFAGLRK", "UniProt P32685": "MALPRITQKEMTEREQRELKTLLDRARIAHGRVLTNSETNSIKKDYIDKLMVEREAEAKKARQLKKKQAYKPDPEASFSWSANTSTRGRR", "UniProt P27303": "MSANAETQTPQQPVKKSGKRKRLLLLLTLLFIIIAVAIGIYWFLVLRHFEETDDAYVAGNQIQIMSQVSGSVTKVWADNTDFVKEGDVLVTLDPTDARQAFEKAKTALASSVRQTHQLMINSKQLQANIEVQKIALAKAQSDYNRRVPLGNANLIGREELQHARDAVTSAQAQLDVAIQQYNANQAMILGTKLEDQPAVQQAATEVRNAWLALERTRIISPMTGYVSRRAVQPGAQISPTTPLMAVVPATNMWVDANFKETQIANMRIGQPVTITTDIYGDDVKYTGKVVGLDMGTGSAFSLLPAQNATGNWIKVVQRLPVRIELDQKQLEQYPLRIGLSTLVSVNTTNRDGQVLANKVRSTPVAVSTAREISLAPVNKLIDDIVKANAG", "UniProt P25742": "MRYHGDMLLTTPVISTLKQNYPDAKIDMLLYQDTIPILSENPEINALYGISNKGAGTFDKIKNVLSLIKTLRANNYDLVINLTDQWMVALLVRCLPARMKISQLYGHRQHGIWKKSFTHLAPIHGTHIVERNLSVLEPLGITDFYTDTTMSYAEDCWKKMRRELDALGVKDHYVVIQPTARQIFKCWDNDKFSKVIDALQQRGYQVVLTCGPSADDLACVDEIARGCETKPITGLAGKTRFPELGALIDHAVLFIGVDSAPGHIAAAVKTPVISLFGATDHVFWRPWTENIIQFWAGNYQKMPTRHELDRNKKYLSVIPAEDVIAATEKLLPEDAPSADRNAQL", "UniProt P25728": "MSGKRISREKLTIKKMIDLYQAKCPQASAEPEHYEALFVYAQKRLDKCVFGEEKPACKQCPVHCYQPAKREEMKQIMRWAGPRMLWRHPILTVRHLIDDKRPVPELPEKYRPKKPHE", "UniProt P24218": "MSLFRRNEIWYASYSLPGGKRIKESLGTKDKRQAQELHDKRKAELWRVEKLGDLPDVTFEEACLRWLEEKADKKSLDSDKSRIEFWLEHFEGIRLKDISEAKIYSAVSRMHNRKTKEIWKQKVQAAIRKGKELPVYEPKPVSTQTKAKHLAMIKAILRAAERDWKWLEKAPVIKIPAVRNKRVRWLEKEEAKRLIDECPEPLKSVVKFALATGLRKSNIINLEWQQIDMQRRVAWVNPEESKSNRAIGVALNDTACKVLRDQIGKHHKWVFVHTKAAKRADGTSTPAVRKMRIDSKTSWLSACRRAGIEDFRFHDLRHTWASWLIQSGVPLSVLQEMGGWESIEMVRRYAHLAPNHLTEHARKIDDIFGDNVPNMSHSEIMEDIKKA", "UniProt P28305": "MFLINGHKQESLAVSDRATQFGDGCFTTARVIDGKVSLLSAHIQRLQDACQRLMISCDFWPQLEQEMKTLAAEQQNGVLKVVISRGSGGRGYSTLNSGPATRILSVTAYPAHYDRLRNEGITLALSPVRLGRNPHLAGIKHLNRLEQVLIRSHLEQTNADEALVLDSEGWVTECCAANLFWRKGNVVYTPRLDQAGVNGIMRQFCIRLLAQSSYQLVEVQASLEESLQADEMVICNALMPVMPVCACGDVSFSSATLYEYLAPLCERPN", "UniProt P30014": "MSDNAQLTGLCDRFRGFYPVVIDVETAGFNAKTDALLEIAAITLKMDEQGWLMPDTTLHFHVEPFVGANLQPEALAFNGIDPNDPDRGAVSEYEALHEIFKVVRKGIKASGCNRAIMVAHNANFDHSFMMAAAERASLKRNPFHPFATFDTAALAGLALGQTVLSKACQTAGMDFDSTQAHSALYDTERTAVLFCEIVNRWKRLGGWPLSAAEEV", "UniProt P25539": "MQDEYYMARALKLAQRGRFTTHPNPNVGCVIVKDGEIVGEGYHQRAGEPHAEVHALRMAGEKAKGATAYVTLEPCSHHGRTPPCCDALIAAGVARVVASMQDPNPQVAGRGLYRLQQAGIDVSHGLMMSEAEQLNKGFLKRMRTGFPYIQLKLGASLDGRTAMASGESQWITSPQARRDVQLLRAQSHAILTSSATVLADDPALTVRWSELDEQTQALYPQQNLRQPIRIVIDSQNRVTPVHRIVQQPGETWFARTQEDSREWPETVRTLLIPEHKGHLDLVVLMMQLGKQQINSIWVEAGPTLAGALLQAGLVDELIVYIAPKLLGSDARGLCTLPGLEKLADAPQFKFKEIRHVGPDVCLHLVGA", "UniProt P32053": "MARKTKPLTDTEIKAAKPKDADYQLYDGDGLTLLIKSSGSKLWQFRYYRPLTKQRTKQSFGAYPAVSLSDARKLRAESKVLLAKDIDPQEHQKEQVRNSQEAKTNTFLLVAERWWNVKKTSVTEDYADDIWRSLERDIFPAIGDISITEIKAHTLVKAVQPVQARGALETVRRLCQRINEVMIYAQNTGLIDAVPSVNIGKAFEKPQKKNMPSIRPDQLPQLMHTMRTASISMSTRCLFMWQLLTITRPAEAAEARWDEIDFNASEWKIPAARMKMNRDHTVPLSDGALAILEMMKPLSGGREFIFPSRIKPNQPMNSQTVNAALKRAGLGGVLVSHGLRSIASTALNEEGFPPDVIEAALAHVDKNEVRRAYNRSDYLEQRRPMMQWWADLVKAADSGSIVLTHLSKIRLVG"}, "source": "the supplement of paper PMC12819154", "about": "“High-throughput peptide-centric local stability assay extends protein–ligand identification to membrane proteins, tissues and bacteria” (Nature Structural & Molecular Biology, 2025)", "note": "The other results are listed elsewhere or left out. Most entries show no effect beyond the scatter of the controls.", "data": [{"compound": "CC1(C)S[C@@H]2[C@H](NC(=O)[C@H](N)c3ccccc3)C(=O)N2[C@H]1C(=O)O [ampicillin]", "experiment": "log2 fold change of tryptic peptide abundance, ligand vs vehicle (limited proteolysis) (log2 ratio); higher = more trypsin-susceptible (destabilized)", "settings": "ligand concentration: 10 uM; sample: E. coli crude lysate", "values": [{"target": "UniProt P33352 (peptide sequence: LYIESPR, peptide start residue: 197)", "log2 fold change": 0.0872}, {"target": "UniProt P30860 (peptide sequence: KYDAVISGMDITPER, peptide start residue: 80)", "log2 fold change": -0.173}, {"target": "UniProt P33593 (peptide sequence: IATIMQNPR, peptide start residue: 81)", "log2 fold change": -0.131}, {"target": "UniProt P30130 (peptide sequence: VENQTGVR, peptide start residue: 731)", "log2 fold change": 0.565}, {"target": "UniProt P32662 (peptide sequence: TMGKPPVDDDIPAEEQVR, peptide start residue: 75)", "log2 fold change": 0.139}, {"target": "UniProt P25906 (peptide sequence: SPNILLIPGTSSVAHLR, peptide start residue: 246)", "log2 fold change": -0.173}, {"target": "UniProt P26281 (peptide sequence: AFDKLNKW, peptide start residue: 152)", "log2 fold change": 0.214}, {"target": "UniProt P31455 (peptide sequence: GGSHVHVFSPNGER, peptide start residue: 136)", "log2 fold change": 0.19}, {"target": "UniProt P27302 (peptide sequence: RMKGEMPSDFDAK, peptide start residue: 328)", "log2 fold change": -1.14}, {"target": "UniProt P27550 (peptide sequence: TLFGDHER, peptide start residue: 476)", "log2 fold change": -0.476}, {"target": "UniProt P25894 (peptide sequence: GISPAGLATSFEKLAK, peptide start residue: 204)", "log2 fold change": -0.533}, {"target": "UniProt P33218 (peptide sequence: ERAAIDQQLR, peptide start residue: 123)", "log2 fold change": -0.636}, {"target": "UniProt P29744 (peptide sequence: GITNSQAEWMK, peptide start residue: 15)", "log2 fold change": -0.384}, {"target": "UniProt P25737 (peptide sequence: TTEAPGLRR, peptide start residue: 7)", "log2 fold change": -0.135}, {"target": "UniProt P24205 (peptide sequence: KDLYPIK, peptide start residue: 317)", "log2 fold change": 0.211}, {"target": "UniProt P29013 (peptide sequence: NAPLLESWQR, peptide start residue: 250)", "log2 fold change": -0.491}, {"target": "UniProt P31460 (peptide sequence: NLVEPAIAR, peptide start residue: 103)", "log2 fold change": 0.0765}, {"target": "UniProt P24203 (peptide sequence: ILLTKTDVAGEAEKLHER, peptide start residue: 155)", "log2 fold change": -0.423}, {"target": "UniProt P32685 (peptide sequence: DYIDKLMVER, peptide start residue: 45)", "log2 fold change": -0.107}, {"target": "UniProt P27303 (peptide sequence: ETQIANMR, peptide start residue: 260)", "log2 fold change": 0.234}, {"target": "UniProt P33225 (peptide sequence: GIRNGDVVR, peptide start residue: 734)", "log2 fold change": -0.0801}, {"target": "UniProt P32684 (peptide sequence: GMSAGVPILGTVTK, peptide start residue: 152)", "log2 fold change": 0.285}, {"target": "UniProt P27836 (peptide sequence: MLTIEDNAEVR, peptide start residue: 49)", "log2 fold change": 0.208}, {"target": "UniProt P25742 (peptide sequence: QHGIWKK, peptide start residue: 109)", "log2 fold change": 0.378}, {"target": "UniProt P24252 (peptide sequence: FDDSTLIR, peptide start residue: 6)", "log2 fold change": 0.313}, {"target": "UniProt P25728 (peptide sequence: QCPVHCYQPAKR, peptide start residue: 59)", "log2 fold change": -0.528}, {"target": "UniProt P24218 (peptide sequence: ELPVYEPKPVSTQTK, peptide start residue: 132)", "log2 fold change": -0.527}, {"target": "UniProt P28305 (peptide sequence: LQDACQR, peptide start residue: 46)", "log2 fold change": 0.614}, {"target": "UniProt P30014 (peptide sequence: AIMVAHNANFDHSFMMAAAER, peptide start residue: 115)", "log2 fold change": -0.0608}, {"target": "UniProt P27859 (peptide sequence: DLTPKPSSR, peptide start residue: 211)", "log2 fold change": 0.141}, {"target": "UniProt P25539 (peptide sequence: TGFPYIQLK, peptide start residue: 144)", "log2 fold change": -0.763}, {"target": "UniProt P27245 (peptide sequence: LIHMVNQKK, peptide start residue: 17)", "log2 fold change": 0.355}, {"target": "UniProt P24182 (peptide sequence: IQVEHPVTEMITGVDLIK, peptide start residue: 293)", "log2 fold change": 0.37}, {"target": "UniProt P32053 (peptide sequence: EFIFPSR, peptide start residue: 303)", "log2 fold change": -0.233}, {"target": "UniProt P28631 (peptide sequence: NTLGVDAVR, peptide start residue: 86)", "log2 fold change": 0.117}]}]}
